# Source: PubChem BioAssay (Tox21)
# The chains behind the UniProt entries cited, without tags or fusion partners. Where a name states a change or a piece, a line headed by the entry shows the natural chain unless it says otherwise.
# UniProt P28223, whole entry, looked up: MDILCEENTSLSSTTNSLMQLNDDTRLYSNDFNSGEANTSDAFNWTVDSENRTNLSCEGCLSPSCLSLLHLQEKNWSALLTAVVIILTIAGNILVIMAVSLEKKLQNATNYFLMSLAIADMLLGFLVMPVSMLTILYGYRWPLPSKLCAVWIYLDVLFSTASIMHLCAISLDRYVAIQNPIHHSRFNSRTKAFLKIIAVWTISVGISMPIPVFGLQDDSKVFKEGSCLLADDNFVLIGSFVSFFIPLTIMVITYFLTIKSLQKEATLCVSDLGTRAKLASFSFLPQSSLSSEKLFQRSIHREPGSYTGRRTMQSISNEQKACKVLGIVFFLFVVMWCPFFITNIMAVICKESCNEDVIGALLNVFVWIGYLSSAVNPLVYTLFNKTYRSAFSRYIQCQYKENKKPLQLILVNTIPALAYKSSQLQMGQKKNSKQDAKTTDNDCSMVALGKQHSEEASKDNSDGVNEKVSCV
# UniProt P11229: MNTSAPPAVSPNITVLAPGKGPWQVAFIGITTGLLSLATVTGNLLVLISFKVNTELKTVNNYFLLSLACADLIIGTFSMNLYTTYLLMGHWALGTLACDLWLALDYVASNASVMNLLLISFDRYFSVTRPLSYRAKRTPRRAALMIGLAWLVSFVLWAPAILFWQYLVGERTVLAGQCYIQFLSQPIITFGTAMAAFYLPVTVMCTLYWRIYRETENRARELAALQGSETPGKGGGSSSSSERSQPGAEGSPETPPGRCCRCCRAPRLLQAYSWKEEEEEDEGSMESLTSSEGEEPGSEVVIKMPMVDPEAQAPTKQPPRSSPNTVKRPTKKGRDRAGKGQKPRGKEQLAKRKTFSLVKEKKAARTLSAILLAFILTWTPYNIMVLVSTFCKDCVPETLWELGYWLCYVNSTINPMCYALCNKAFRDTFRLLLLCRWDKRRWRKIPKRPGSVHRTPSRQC
# UniProt P14416, whole entry, looked up: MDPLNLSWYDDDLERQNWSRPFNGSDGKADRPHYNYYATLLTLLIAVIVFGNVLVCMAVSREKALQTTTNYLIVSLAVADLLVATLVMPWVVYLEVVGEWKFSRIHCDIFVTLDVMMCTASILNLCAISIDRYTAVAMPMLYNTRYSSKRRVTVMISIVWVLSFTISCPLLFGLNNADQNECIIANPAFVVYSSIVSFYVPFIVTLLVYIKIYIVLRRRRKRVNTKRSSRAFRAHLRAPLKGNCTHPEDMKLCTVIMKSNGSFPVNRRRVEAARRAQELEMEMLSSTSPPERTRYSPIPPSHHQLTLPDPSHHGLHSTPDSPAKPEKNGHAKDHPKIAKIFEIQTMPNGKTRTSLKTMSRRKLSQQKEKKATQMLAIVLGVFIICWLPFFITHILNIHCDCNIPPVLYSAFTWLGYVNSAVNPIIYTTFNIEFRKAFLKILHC
# “And” between values parts separate entries of the source, which are not always exact repeats. Identical values can stand only once. Inconclusive results, whose numbers are uncertain, are shown with a selection of clear calls. For some of these results: Potencies beside an inconclusive call are fits to weak or partial responses and may not hold up. The source made the active and inactive calls. Unless noted, calls follow the shape of the full dose curve.
# How the values were obtained:
# [1] = Nuclear factor erythroid 2-related factor 2/antioxidant responsive element (Nrf2/ARE) small molecule agonists: luciferase reporter gene qHTS assay in human keratinocytes (AID 1919969); also: nearly all actives have a fitted effect of over 35% in size; also: potency is read from the fitted curve at half-maximal effect
# [2] = p53 small molecule agonists, cell-based qHTS assay with human liver microsomes: qHTS cell viability counter screen (AID 1963579); also: potency is read from the fitted curve at half-maximal effect; nearly all actives have a fitted effect of over 45% in size
# Method in brief: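 After the 460/530 nm beta-lactamase read, CellTiter-Glo was added to the same wells and luminescence measured after 30 min at room temperature, giving viability of p53RE-bla cells treated 16 h with compounds plus microsomes and NADPH.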
# [3] = p53 small molecule agonists, cell-based qHTS assay with rat liver microsomes: qHTS cell viability counter screen (AID 1963580); also: potency is read from the fitted curve at half-maximal effect; nearly all actives have a fitted effect of over 45% in size
# Method in brief: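 Luminescent ATP readout (CellTiter-Glo, 30 min at room temperature) reports viability of p53RE-bla HCT-116 cells after 16 h at 37 C with test compounds under metabolic activation by rat liver microsomes and NADPH at 0.5 mg/mL final each.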
# [4] = target: 5-hydroxytryptamine receptor 2A (Homo sapiens) (UniProt P28223); experiment: 5-hydroxytryptamine receptor 2A (HTR2A) small molecule antagonists, cell-based qHTS assay (AID 1963586); also: nearly all actives have a fitted effect of over 45% in size; also: potency is read from the fitted curve at half-maximal effect
# Method in brief: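 CHO cells stably expressing human HTR2A were plated for 18 h at 37 C, then loaded with calcium dye for 1 h. Compounds were preincubated 5 min at room temperature before DOI (4 nM solution) was added. Kinetic fluorescence was read for 3 min.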
# [5] = target: Muscarinic acetylcholine receptor M1 (Homo sapiens) (UniProt P11229); experiment: Cholinergic receptor muscarinic 1 (CHRM1) small molecule antagonists, cell-based qHTS assay (AID 1963588); also: nearly all actives have a fitted effect of over 40% in size; also: potency is read from the fitted curve at half-maximal effect
# Method in brief: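 Compounds were tested at 15 concentrations in three independent runs. Dye-loaded CHRM1-CHO cells were exposed 5 min at room temperature before stimulation by acetylcholine added at 50nM. Intracellular calcium was read kinetically on FDSS for 3 min.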
# [6] = target: D(2) dopamine receptor (Homo sapiens) (UniProt P14416); experiment: Dopamine D2 receptor (DRD2) small molecule agonists, cell-based qHTS assay (AID 1963594); conditions: HEK293-DRD2 cAMP HTRF, agonist mode, 30 min; activation: at 92.4 µM (top of the series) unless noted; also: potency is read from the fitted curve at half-maximal effect; nearly all actives have a fitted effect of over 35% in size
# Method in brief: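 HEK293 cells stably expressing DRD2 were cultured 24 h at 37 C, then given Ro20-1724 (0.1 mM final) and compounds for 10 min at room temperature. NKH477 (200nM) was then added for 30 min. cAMP was read by HTRF.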
# [7] = p53 small molecule agonists, cell-based qHTS assay with human liver microsomes (AID 1963577); conditions: HCT-116 p53RE-bla with human liver microsomes, ratio, 16 h; activation: at 66 µM (top of the series) unless noted; also: potency is read from the fitted curve at half-maximal effect;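 as to activation: p53 response element beta-lactamase reporter cells with liver microsomes plus NADPH; % is scaled to controls: 0 for no effect and ±100 for the full control effect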
# Method in brief: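 Steps: plate p53RE-bla cells, incubate 5 h at 37 C; add compound in DMSO; add microsomes (0.5 mg/mL final) and NADPH (0.5 mg/mL final); incubate 16 h at 37 C; add LiveBLAzer, 2 h RT; read fluorescence.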
# [8] = p53 small molecule agonists, cell-based qHTS assay: qHTS cell viability counter screen (AID 1963581); also: nearly all actives have a fitted effect of over 45% in size; also: potency is read from the fitted curve at half-maximal effect
# Method in brief: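 Cytotoxicity read-out: ATP-based luminescence (CellTiter-Glo, 30 min RT) measured in the same wells as the p53 reporter assay, HCT-116 p53RE-bla cells, 16 h compound exposure at 37 C.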
# [9] = cAMP Responsive Elements (CRE) small molecule antagonists, cell-based qHTS assay (AID 1963591; active = well fitted inhibition curve with a large enough effect in the signal ratio in the repeat runs, not every such curve was filed as active; inconclusive = weak or mixed curves, or effect the other way; the % refers to the signal ratio; also: potency is read from the fitted curve at half-maximal effect; as to activity change, negative = inhibition: % is scaled to controls: 0 for no effect and ±100 for the full control effect); conditions: CRE-bla HEK293T, beta-lactamase FRET ratio; activity change, negative = inhibition: at 92.4 µM (top of the series) unless noted
# Method in brief: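 HEK293T CRE-bla; 18 h preincubation; compound pin-transfer; NKH477 0.25 uM final, 3 h, 37 C; LiveBLAzer FRET substrate 2 h RT.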
# [10] = target: Beta-2 adrenergic receptor (Homo sapiens) (UniProt P07550); experiment: Adrenergic beta2 receptor (ADRB2) small molecule agonists, cell-based qHTS assay (AID 1963593); conditions: CHO-ADRB2 cells, cAMP HTRF, 30 min; activation: at 92.4 µM (top of the series) unless noted; also: potency is read from the fitted curve at half-maximal effect;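 as to activation: CHO cells stably overexpressing human ADRB2; % is scaled to controls: 0 for no effect and ±100 for the full control effect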
# Method in brief: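 CHO cells stably over-expressing ADRB2 were plated overnight at 37C, then dosed with compounds plus a stimulation mix containing 100uM IBMX and 25uM Ro-20-1724 for 0.5hr at room temperature. cAMP was measured by HTRF competition, 1hr.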
# [11] = target: D(2) dopamine receptor (Homo sapiens) (UniProt P14416); experiment: Dopamine D2 receptor (DRD2) small molecule antagonists, cell-based qHTS assay (AID 1963595; active = well fitted inhibition curve with a large enough effect in the signal ratio in the repeat runs, with a control signal flat; inconclusive = weak or mixed curves, or effect the other way; the % refers to the signal ratio; also: potency is read from the fitted curve at half-maximal effect); conditions: HEK293-DRD2 cAMP HTRF antagonist mode; activity change, negative = inhibition: at 92.4 µM (top of the series) unless noted
# Method in brief: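 HEK293 cells stably expressing DRD2 were preincubated with 0.1 mM Ro20-1724, then with compound for 10 min at room temperature. Cells were stimulated with 200 nM NKH477 plus 12 nM quinpirole for 30 min, and cAMP was read by HTRF.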
# [12] = p53 small molecule agonists, cell-based qHTS assay with rat liver microsomes (AID 1963578); conditions: HCT-116 p53RE-bla, beta-lactamase ratio, 16 h; activation: at 66 µM (top of the series) unless noted; also: potency is read from the fitted curve at half-maximal effect; as to activation: % is scaled to controls: 0 for no effect and ±100 for the full control effect
# Method in brief: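 Metabolic activation is supplied by rat liver microsomes with NADPH (each 0.5 mg/mL final). p53RE-bla cells incubate with compound 16 h at 37 C; reporter activity is measured by LiveBLAzer fluorescence.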
# [13] = p53 small molecule agonists, cell-based qHTS assay (AID 1963582; active = well fitted activation curve with a large enough effect in the signal ratio in the repeat runs, not every such curve was filed as active; inconclusive = weak or mixed curves; the % refers to the signal ratio; also: potency is read from the fitted curve at half-maximal effect); conditions: HCT-116 p53RE-bla reporter, beta-lactamase FRET ratio, 16 h; activation: at 66 µM (top of the series) unless noted
# Method in brief: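 Fluorescence intensity read-out of a beta-lactamase reporter under a p53 response element. Cells were exposed to DMSO-dissolved compounds for 16 h at 37 C, then developed with FRET substrate for 2 h at RT.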
# [14] = cAMP Responsive Elements (CRE) small molecule agonists, cell-based qHTS assay (AID 1963590); conditions: CRE-bla HEK293T, beta-lactamase FRET ratio, 3 h; activation: at 92.4 µM (top of the series) unless noted; also: potency is read from the fitted curve at half-maximal effect
# Method in brief: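 Beta-lactamase reporter readout: LiveBLAzer B/G FRET substrate, 2 h at room temperature, added after 3 h compound treatment of CRE-bla HEK 293T cells at 37 C/5% CO2.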
# [15] = target: 5-hydroxytryptamine receptor 2A (Homo sapiens) (UniProt P28223); experiment: 5-hydroxytryptamine receptor 2A (HTR2A) small molecule agonists, cell-based qHTS assay (AID 1963587); conditions: HTR2A-CHO cells, calcium flux fluorescence, agonist mode; activation: at 76.8 µM (top of the series); also: % is scaled to controls: 0 for no effect and ±100 for the full control effect; nearly all actives have a fitted effect of over 30% in size
# Method in brief: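 HTR2A-CHO cells, plated 18 h at 37 C/5% CO2, dye-loaded 1 h at 37 C; compounds in DMSO added by pin tool (agonist mode). Intracellular calcium flux read as kinetic fluorescence on FDSS over 2 min at 1 s intervals.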
# [16] = target: Beta-2 adrenergic receptor (Homo sapiens) (UniProt P07550); experiment: Adrenergic beta2 receptor (ADRB2) small molecule antagonists, cell-based qHTS assay (AID 1963592); conditions: CHO-ADRB2 cells, isoproterenol-stimulated cAMP HTRF ratio, 0.5 h; activity change, negative = inhibition: at 92.4 µM (top of the series) unless noted; also: potency is read from the fitted curve at half-maximal effect; nearly all actives have a fitted effect of over 50% in size
# Method in brief: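 Assay format: CHO-ADRB2 cells, 18-20hr seeding at 37C/5% CO2, then compound plus 1nM isoproterenol agonist mix for 0.5hr RT. Homogeneous time-resolved fluorescence cAMP detection after 1hr, expressed as 665/615 nm ratio.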
smiles,measurement,setting,value
COc1cc(CC(C)N)c(OC)cc1Br (centres undefined),Potency,[1],inactive
same,Potency,[2],"inconclusive: 16.8 µM [rising, full curve]"
same,Potency,[3],"inconclusive: 33.5 µM [rising, partial curve]"
same,Potency,[4],inactive
same,Potency,[5],active: 17.3 µM
same,Potency,[6],active: 20 µM
FC(F)(F)c1cccc(C2=CCN(CCc3ccc4ccccc4c3)CC2)c1,Potency,[1],"inconclusive: 18.8 µM [activator, partial curve]"
same,Potency,[7],inactive
same,Potency,[8],inactive
same,"activity change, negative = inhibition",[9],inconclusive: 18.9% [at 42.4 µM]
same,activation,[10],inconclusive: -2.79% [at 42.5 µM]
same,Potency,[11],"inconclusive: 33.5 µM [inhibitor, single point]"
O=C(O)c1ccccc1C(=O)Nc1cccc2ccccc12,Potency,[1],"inconclusive: 68.6 µM [activator, single point]"
same,Potency,[7],"inconclusive: 45.8 µM [fluorescent, partial curve, poor fit]"
same,Potency,[8],inactive
same,Potency,[10],"inconclusive: 1.93 µM [inhibitor, partial curve, poor fit]"
CCCCCCCCCl,Potency,[1],"inconclusive: 68.6 µM [activator, single point]"
same,Potency,[2],"inconclusive: 45.8 µM [cytotoxic, single point]"
same,Potency,[3],"inconclusive: 18.2 µM [rising, single point]"
same,Potency,[10],inactive
CC(C)=CC1C(C(=O)OCc2cccc(Oc3ccccc3)c2)C1(C)C (centres undefined),Potency,[1],"inconclusive: 33.5 µM [activator, partial curve, poor fit]"
same,Potency,[12],inactive
same,Potency,[13],"inconclusive: 0.0793 µM [falling, single point]"
same,Potency,[4],inactive
same,activation,[10],inconclusive: 2.82% [at 42.5 µM]
COC(=O)N(OC)c1ccccc1COc1ccn(-c2ccc(Cl)cc2)n1,Potency,[1],inactive
same,Potency,[7],"inconclusive: 20.4 µM [falling, partial curve, poor fit]"
same,Potency,[13],"inconclusive: 0.814 µM [fluorescent, single point]"
same,Potency,[5],"inconclusive: 0.149 µM [inhibitor, full curve, poor fit]"
same,Potency,[9],active: 61.1 µM
same,Potency,[10],inactive
O=C(Nc1ccccc1)N(Cc1ccc(Cl)cc1)C1CCCC1,Potency,[1],"inconclusive: 68.6 µM [activator, single point]"
same,Potency,[12],"inconclusive: 18.2 µM [rising, partial curve, poor fit]"
same,Potency,[13],"inconclusive: 9.13 µM [fluorescent, full curve]"
same,Potency,[14],"inconclusive: 30.6 µM [rising, partial curve]"
same,"activity change, negative = inhibition",[9],inconclusive: 9.72%
C[C@H]1[C@H](c2ccc(Cl)cc2)SC(=O)N1C(=O)NC1CCCCC1,Potency,[1],"inconclusive: 48.6 µM [activator, partial curve]"
same,Potency,[7],"inconclusive: 51.3 µM [rising, partial curve, poor fit]"
same,Potency,[13],"inconclusive: 45.8 µM [rising, partial curve]"
same,Potency,[14],"inconclusive: 77 µM [rising, partial curve, poor fit]"
same,Potency,[10],inactive
CCc1cccc(C)c1N(C(=O)CCl)C(C)COC (centres undefined),Potency,[1],"active: 57.6 µM and inconclusive: 61.1 µM [activator, single point]"
same,Potency,[12],inactive
same,Potency,[13],"inconclusive: 51.3 µM [rising, partial curve, poor fit]"
same,Potency,[5],inactive
same,Potency,[14],"inconclusive: 64.6 µM [rising, single point]"
c1ccc(-c2ccccc2)cc1,Potency,[1],"inconclusive: 69.2 µM [activator, single point] and inactive"
same,activation,[7],inconclusive: 3.96%
same,Potency,[13],"inconclusive: 22.9 µM [falling, full curve, poor fit]"
same,Potency,[10],"inconclusive: 0.871 µM [inhibitor, partial curve, poor fit]"
CO/C=C(/C(=O)OC)c1ccccc1Oc1cc(Oc2ccccc2C#N)ncn1,Potency,[1],"inconclusive: 2.43 µM [activator, single point]"
same,Potency,[12],"inconclusive: 34.5 µM [activator, partial curve, poor fit]"
same,Potency,[2],"inconclusive: 54.7 µM [cytotoxic, partial curve, poor fit]"
same,Potency,[3],"inconclusive: 34.5 µM [cytotoxic, partial curve]"
same,Potency,[8],"inconclusive: 1.94 µM [cytotoxic, single point]"
same,Potency,[13],inconclusive: 3 µM
same,Potency,[4],"inconclusive: 0.1 µM [inhibitor, full curve, poor fit]"
same,Potency,[15],inactive
same,Potency,[14],inconclusive: 56.3 µM [fluorescent]
same,Potency,[9],"inconclusive: 61.3 µM [falling, partial curve]"
same,Potency,[16],"inconclusive: 58.1 µM [inhibitor, partial curve, poor fit]"
same,Potency,[10],"inconclusive: 3.67 µM [inhibitor, full curve]"
same,Potency,[6],"inconclusive: 0.652 µM [falling, single point]"
same,"activity change, negative = inhibition",[11],inconclusive: 4.16%
